We go through 1 molecule from publication PMC8341399, “A STING-based fluorescent polarization assay for monitoring activities of cyclic dinucleotide metabolizing enzymes” (RSC Chemical Biology, 2020).

The test system of the assay is hENPP1. In words: ENPP1 cGAMP hydrolysis tracking, HPLC analysis. Format: biochemical, human. Particulars: ENPP1 9.16 nM, 50 μM cGAMP, 30 min.

Molecules are shown by their SMILES. For part of its entries the source gives two or more results. The other results are left out here. There may be further records. The records of an entry differ, and nothing given here explains why; they may come from other doses, times, organisms or constructs than stated.

For the molecule `Nc1nc2c(ncn2[C@@H]2O[C@@H]3COP(=O)(O)O[C@H]4[C@@H](O)[C@H](n5cnc6c(N)ncnc65)O[C@@H]4COP(=O)(O)O[C@@H]2[C@@H]3O)c(=O)[nH]1` [cGAMP, 2′3-cGAMP], the “cGAMP percent cleavage HPLC” value is “over 70% and 72%”.
